Reference: PubChem BioAssay AID624297 (National Center for Advancing Translational Sciences (NCATS), 2012)
About 6,200 (1.8%) of roughly 340,000 compounds were called active. This list was built around the results that the source calls inconclusive (neither active nor inactive); the mix of calls is not that of the screen. Calls come from the whole dose curve; as a rule, active = well fitted activation curve with a large enough effect; inconclusive = small, poorly fitted or top-dose-only effect; inactive = no such curve, though single readings can be large or run the other way. Potencies beside an inconclusive call are fits to weak or partial responses and may not hold up.

assay: A quantitative high throughput screen for small molecules that induce DNA re-replication in SW480 colon adenocarcinoma cells.; note: nearly all actives have a fitted effect of over 55% in size; for re-replication activation: % of control where 0% means no effect; conditions: Hoechst DNA content imaging, 48 h; re-replication activation: at 46.1 µM (top of the series) unless noted
Method in brief: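 Image-based DNA-content assay: after two days of treatment, nuclei were labelled with the DNA dye Hoechst and imaged, and hits were compounds raising the count of nuclei showing high fluorescence intensity.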
Potency is the fitted concentration of half-maximal effect.

Structure (SMILES) | Potency | re-replication activation
COc1ccc(CCC(=O)NCCS(=O)(=O)N2CCN(c3ccccc3OC)CC2)cc1 | inconclusive: 1.3 µM [activator, full curve] | 
CCN(C(=O)CSc1nc2scc(-c3ccccc3)c2c(=O)n1N)C1CCS(=O)(=O)C1 (stereo not given) | inconclusive: 23.1 µM [activator, single point] | 
CCOc1ccccc1NC(=O)Nc1ccc(Cl)cc1 | inconclusive: 0.231 µM [activator, full curve, poor fit] | 
CCN=c1sc(C(=O)NCCc2ccccc2)cc(=O)n1CC | inconclusive: 29.1 µM [activator, single point] | 
COC(=O)CSC1=C(C#N)C(c2ccccc2)CC(=O)N1 (stereo not given) | inconclusive: 20.6 µM [activator, single point] | 
CCn1ccnc1CN(C)Cc1cn(-c2ccc(C)cc2)nc1-c1cccc(C)c1 | inconclusive: 32.6 µM [activator, single point] | 
Clc1ccc(CN2C3=NCCCN3c3ccccc32)cc1Cl |  | inactive: 9.87%
COc1cc(CNCc2ccccn2)ccc1OCC(=O)NC1CCCCC1 |  | inactive: -67.1%
CN1CCN(c2ccc(CNS(=O)(=O)c3ccc(Cl)cc3)cc2)CC1 | inconclusive: 0.116 µM [activator, full curve, poor fit] | 
CCOc1ccccc1NC(=S)N(CCOC)C1CCN(C(C)=O)CC1 | inconclusive: 3.26 µM [activator, single point] | 
CCOC(=O)C(=O)Nc1nccs1 |  | inactive: -9.31%
Cc1nc(C)c(/C(O)=C/c2nc3ccccc3oc2=O)s1 | inconclusive: 5.17 µM [activator, full curve, poor fit] | 
CCN(CC)C(=O)Cn1cc(C(=O)C(=O)N2CCN(c3ccc(OC)cc3)CC2)c2ccccc21 | inconclusive: 1.84 µM [activator, partial curve, poor fit] | 
CCCCOC(=O)/C=C\C(=O)NC(N)=O | inconclusive: 18.4 µM [activator, single point] | 
CN(C)CCNC(=O)c1ccccc1-c1ccccc1 |  | inactive: 10.6%
Cn1cnnc1SCC(=O)NC1CC1 |  | inactive: -1.4%
C[C@H](NC(=O)OC(C)(C)C)C(=O)N/N=C/C1=Cc2ccccc2OC1 | inconclusive: 20.6 µM [activator, single point] | 
COc1ccc(Cn2c(-c3ccc(OC)c(O)c3)nc3ccccc32)cc1O | inconclusive: 32.6 µM [activator, single point] | 
CCC1(CC)NC(=O)N(CC(=O)NCc2ccc3c(c2)OCO3)C1=O | inconclusive: 14.6 µM [activator, partial curve, poor fit] | 
NS(=O)(=O)c1ccc(N/C=C\C(=O)c2ccc3ccccc3c2)cc1 | inconclusive: 18.4 µM [activator, single point] | 
Cn1c(/C=N/NC(=O)c2ccccc2)nc2ccccc21 |  | inactive: -0.399%
Cc1cc(C)cc(OCc2nnc(N)s2)c1 | inconclusive: 1.84 µM [activator, partial curve] | 
Cn1c(=S)c2[nH]c(SCCC(C)(C)C)nc2n(C)c1=O | inconclusive: 23.1 µM [activator, single point] | 
C[C@H](NC(=O)c1nc[nH]c1C(=O)N1CCc2ccccc2C1)C(=O)OC(C)(C)C | inconclusive: 4.61 µM [activator, partial curve, poor fit] | 

Three entries already listed, arranged by formula weight, descending.
Structure (SMILES) | Potency | re-replication activation
CCN(CC)C(=O)Cn1cc(C(=O)C(=O)N2CCN(c3ccc(OC)cc3)CC2)c2ccccc21 | inconclusive: 1.84 µM [activator, partial curve, poor fit] | 
CN(C)CCNC(=O)c1ccccc1-c1ccccc1 |  | inactive: 10.6%
Cn1cnnc1SCC(=O)NC1CC1 |  | inactive: -1.4%

Compounds listed so far that contain a Cl atom, in the order listed:
Structure (SMILES) | Potency | re-replication activation
CCOc1ccccc1NC(=O)Nc1ccc(Cl)cc1 | inconclusive: 0.231 µM [activator, full curve, poor fit] | 
Clc1ccc(CN2C3=NCCCN3c3ccccc32)cc1Cl |  | inactive: 9.87%
CN1CCN(c2ccc(CNS(=O)(=O)c3ccc(Cl)cc3)cc2)CC1 | inconclusive: 0.116 µM [activator, full curve, poor fit] | 

Continuation.

Structure (SMILES) | Potency | re-replication activation
Cc1ccc(OCCC(=O)Nc2ccc(S(=O)(=O)Nc3nccs3)cc2)cc1 | inconclusive: 0.58 µM [activator, partial curve, poor fit] | 
COc1ccc(NCC(=O)N/N=C/C2CCCCC2)cc1 | inconclusive: 6.51 µM [activator, partial curve, poor fit] | 
CN(CCCC(=O)Nc1ccc(Br)cc1F)S(=O)(=O)c1ccccc1 |  | inactive: -2.77%
Cc1nn(CC(=O)NCCc2cccs2)c(=O)c2cc3ccccc3n12 |  | inactive: 4.47%
COc1cc2c(cc1OC)C(C)N(C(=O)c1cc(C)on1)CC2 (stereo not given) | active: 0.731 µM | 
Cc1c(/C=N/Nc2nc3ccccc3[nH]2)c2ccccc2n1C | inconclusive: 29.1 µM [activator, single point] | 
COc1ccc(/C=N/n2cnc3c([nH]c4ccccc43)c2=O)cc1CO | inconclusive: 32.6 µM [activator, partial curve, poor fit] | 
CC(C)N1CCc2c(sc(NC(=O)c3ccc4ccccc4c3)c2C(N)=O)C1 | active: 14.6 µM | 
Cn1sc(NC(=O)c2ccccc2Cl)nc1=O |  | inactive: -2.43%
O=C(OCc1cc(Cl)ccc1OC(F)F)c1cncc(Br)c1 | inconclusive: 29.1 µM [activator, single point] | 
CCCNC(=O)NC1CCCCCCC1 | inconclusive: 29.1 µM [activator, single point] | 
Cc1ccc(-c2ccc(C3C(C#N)=C(N)Oc4n[nH]c(C)c43)o2)cc1 (stereo not given) | inconclusive: 29.1 µM [activator, single point] | 
CCn1c(/C=C/c2c(C)[nH]c3ccccc23)nc2ccccc2c1=O | inconclusive: 16.4 µM [activator, partial curve, poor fit] | 
S=C(Nc1ccccc1)N1CCN(Cc2ccccc2)CC1 | inconclusive: 1.84 µM [activator, partial curve, poor fit] | 
O=S(=O)(c1cccs1)N1CN(CC2CCCO2)c2nc3ccccc3nc21 (stereo not given) | inconclusive: 29.1 µM [activator, single point] | 
O=C(Nc1nc2ccccc2[nH]1)c1ccc(F)cc1 | inconclusive: 9.2 µM [activator, partial curve, poor fit] | 
Cc1c(C(=O)N2CCN(C)CC2)oc2c1C(=O)CC(C)(C)C2 |  | inactive: 2.93%
CCOC(=O)c1cnc(-n2nc(C)cc2C)nc1N(CC)CC | inconclusive: 16.4 µM [activator, single point] | 
N#CC1(Nc2ccc(Br)cc2)CCCC1 |  | inactive: -1.26%
CCOc1ccc(C(=O)NCC(=O)OCCCOC(=O)CNC(=O)c2ccc(OCC)cc2)cc1 | inconclusive: 20.6 µM [activator, single point] | 
Cc1ccc(Cn2nc(C)c(C(=O)NCC(c3ccc(F)cc3)N3CCOCC3)c2Cl)cc1 (stereo not given) |  | inactive: -8.06%
COc1cc(NC(C)CCCN)c2ncccc2c1Oc1ccccc1 (stereo not given) | inconclusive: 23.1 µM [activator, single point] | 
COc1ccc(-c2cc(-c3ccccc3)nc(NN)n2)cc1OC | inconclusive: 29.1 µM [activator, single point] | 
COc1ccc2[nH]c(-c3cccc(F)c3)cc(=O)c2c1 | active: 0.731 µM | 

Structure (SMILES) | Potency | re-replication activation
O=C(COc1ccccc1Cl)N1N=C(c2cccs2)CC1c1ccco1 (stereo not given) | inconclusive: 25.9 µM [activator, single point] | 
NS(=O)(=O)c1ccc(CCNCC(=O)N2CCC(Cc3ccccc3)CC2)cc1 | inconclusive: 29.1 µM [activator, single point] | 
CCOc1cc(C=O)ccc1OCCCN1C(=O)NC(C)(C)C1=O |  | inactive: -4.68%
Cc1cc(C)c2cc(C#N)c(N3CCCN(C(=S)NCCCN(C)C)CC3)nc2c1 | inconclusive: 20.6 µM [activator, single point] | 
COc1ccc(Cc2nc(-c3ccc(-n4cccc4)cc3)no2)cc1OC |  | inactive: -3.47%
CCCN1C(=O)SC(CC(=O)Nc2ccccc2C)C1=O (stereo not given) | inconclusive: 16.4 µM [activator, single point] | 
CN(C)/C=N/C1=C(C#N)C(c2ccc(Br)cc2)c2ccc3ccccc3c2O1 (stereo not given) | inconclusive: 2.91 µM [activator, full curve, poor fit] | 
CCOC(=O)C1=C(C)NC(=O)C1CC(=O)O (stereo not given) | inconclusive: 29.1 µM [activator, single point] | 
COC(=O)C1=CN(C(C)C)C=C(C(=O)OC)C1c1cc2c(cc1Br)OCO2 | inconclusive: 18.4 µM [activator, single point] | 
O=[N+]([O-])c1ccc(N=Nc2ncc[nH]2)cc1 | inconclusive: 1.3 µM [activator, partial curve] | 
Oc1cccc(C(O)CNCc2ccc(-c3ccccc3)cc2)c1 (stereo not given) | inconclusive: 16.4 µM [activator, single point] | 
CC1CC(C)(C)Nc2ccc(OC(=O)c3ccco3)cc21 (stereo not given) | inconclusive: 23.1 µM [activator, single point] | 
O=C(NN=C1CCCCCC1)c1ccc(Br)o1 | inconclusive: 29.1 µM [activator, single point] | 
CCCNc1c(NS(=O)(=O)c2ccc(C3CCCCC3)cc2)c(=O)oc2ccccc12 | inconclusive: 25.9 µM [activator, single point] | 
COc1cc(/C=C/c2cc[n+](C)cc2)ccc1OCC(=O)Nc1ccc(Cl)c(Cl)c1 | inconclusive: 18.4 µM [activator, single point] | 
CCN(C(=O)CSc1nc2ccccc2c(=O)n1C(C)COC)C1CCS(=O)(=O)C1 (stereo not given) |  | inactive: -93.7%
CCOC(=O)C1=C(C)NC(=O)NC1/C(C)=C/c1ccccc1 (stereo not given) |  | inactive: -2.12%
CC1=[N+](C)c2ccc3ccccc3c2C1(C)C | inconclusive: 29.1 µM [activator, single point] | 
N#C/C(=C/c1ccc(N2CCCCCC2)o1)c1ccc(Cl)cc1 | active: 13 µM | 
C/C(=N\NC(=O)Cc1cccc2ccccc12)c1ccncc1 | inconclusive: 32.6 µM [activator, partial curve, poor fit] | 
Cc1ccc(C)c(S(=O)(=O)N2CCN(C(=O)[C@H](Cc3ccccc3)NC(=O)c3ccco3)CC2)c1 |  | inactive: -6.94%
COc1ccc(CNC(=O)c2ccc(N3CCC4(CC3)CC(c3ccc(Cl)cc3)=NO4)c([N+](=O)[O-])c2)cc1 | inconclusive: 0.164 µM [activator, full curve, poor fit] | 
